Experimental findings from PubChem BioAssay AID638 (SRMLSC, 2007) are described below.

Structures are written as SMILES. Hit rate of the full screen: of about 1,300 compounds, about 65 (5%) were called active.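 The calls were made as follows: active = growth inhibition reaching a set limit at one or more tested doses; inactive = the rest.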 The list shows a part of the results. Entries with a potency or affinity are not part of this list.

The nature of the assay: wild-type E. coli BW25113 antibacterial activity – OD615, dose response (AID 638). To be noted: at 100 µM (top of the series) unless noted. The method, boiled down: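 Assay system: E. coli BW25113 wild type; buffer or medium: Kanamycin-supplemented LB broth; signal: optical density (absorbance) at 615 nm; controls: chloramphenicol 30 µM control; doses: compound concentration series; times: bacterial exposure to compound 20 h at 37 °C; evaluation: IC50 from 4-parameter logistic, bounds fixed 0–100%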
Consider `COc1ccc(C/C(O)=C(\C#N)c2nc3ccccc3s2)cc1`, for which the growth inhibition was inactive: -2.95%.

Regarding `O=C(COc1cccc2ccccc12)N1CCN(c2ccccc2)CC1`, the growth inhibition is inactive: -6.33%.

As for `Cc1[nH]n2c(=O)cc(C(C)(C)C)nc2c1-c1ccccc1`, the growth inhibition was inactive: 10.5%.

`Cn1c(NC(=O)c2ccccc2NC(=O)C(C)(C)C)nc2ccccc21`: the growth inhibition is inactive: -18.3%.

With `COc1ccc(NC(=O)c2ccc(Cl)c(S(=O)(=O)N3CCc4ccccc4C3)c2)cn1`, the growth inhibition was inactive: -4.75%.

With `CCOC(=O)c1sc2nc(CC(=O)OC)nc(N3CCN(c4ccccn4)CC3)c2c1C`, the growth inhibition was inactive: -12.8%.

Turning to `Cc1ccc2cc(C(c3nnnn3C3CCCC3)N(Cc3cccnc3)Cc3ccco3)c(=O)[nH]c2c1` (stereo not drawn), the growth inhibition was inactive: -6.03%.

Regarding `O=C(Nc1nc(-c2ccccn2)cs1)c1ccc(Cl)s1`, the growth inhibition was inactive: 2.27% [at 50 µM].

In the case of `Cc1ccc(-c2nnc3sc(CCc4ccccc4)nn23)cc1`, the growth inhibition was inactive: 9.95%.

For the compound `COc1ccccc1C(=O)Nc1nnc(-c2ccc3c(c2)CCCC3)o1`, the growth inhibition was inactive: 2.77%.

As for `CCCCCSc1nnc(-c2cc(Br)ccc2N)c(=O)[nH]1`, the growth inhibition was inactive: -4.38%.

As for `O=S(=O)(Nc1cccc2ncccc12)c1cccs1`, the growth inhibition was inactive: 2.77%.

`Oc1ccc(Cl)cc1-c1cc(-c2ccccc2)n[nH]1`: the growth inhibition was inactive: 12%.

For the compound `COC(=O)c1ccc(O)c(Sc2cc(C(=O)OC)ccc2O)c1`, the growth inhibition was inactive: 18.2% [at 50 µM].

`CCCCCn1c(SCCC(C)C)nc2c1c(=O)[nH]c(=O)n2C`: the growth inhibition is inactive: -3.56%.

For the compound `Cc1ccc(-c2nnn(CC(=O)N(Cc3ccco3)C(C(=O)NC(C)(C)C)c3cccs3)n2)o1` (stereo not drawn), the growth inhibition is inactive: 1.45%.

As to `CCOC(=O)c1cnc(-n2nc(C)cc2C)nc1NCc1ccccc1`, the growth inhibition is inactive: 2.47%.

As to `Cc1oc2c(CN3CCOCC3)c(O)ccc2c(=O)c1-c1ccc(Br)cc1`, the growth inhibition was inactive: 0.4%.

Consider `CCCCCCn1c(CN2CCCC(C)C2)nc2c1c(=O)n(C)c(=O)n2C` (stereo not drawn), for which the growth inhibition was inactive: -5.27%.

Take `CCn1c(C(=O)NCCCc2ccccc2)cc2sccc21`: the growth inhibition was inactive: 2.23%.

For the compound `CC1CN(c2oc(COc3ccc(Cl)cc3Cl)nc2C#N)CC(C)O1` (stereo not drawn), the growth inhibition was inactive: -6.32%.

In the case of `O=C(c1ccc2c(=O)n(C3CCCC3)c(=S)[nH]c2c1)N1CCN(C2CCCCC2)CC1`, the growth inhibition was inactive: 12.5%.

In the case of `COc1ccc(OC)c(S(=O)(=O)n2cnc3cc(C)c(C)cc32)c1`, the growth inhibition was inactive: -5.06%.

In the case of `CC(=O)c1sc(NC(=O)C2(F)C(F)(F)C(F)(F)C(F)(F)C(F)(F)C2(F)F)nc1C`, the growth inhibition is inactive: 15.7%.

For `O=C1NC(Nc2nc3ccccc3s2)(C(F)(F)F)C(=O)N1C1CCCCC1` (stereo not drawn), the growth inhibition was inactive: -4.49%.

For the compound `Cc1ccc(-c2noc(CN3CCN(c4ccccc4F)CC3)n2)cc1`, the growth inhibition was inactive: -1.59%.

Regarding `N#Cc1nc(Cc2cccc3ccccc23)oc1NCCCn1ccnc1`, the growth inhibition was inactive: 2.47%.

`c1csc(-c2noc(COc3ccc4c(c3)CCCC4)n2)c1`: the growth inhibition was inactive: 14.2%.

For `Cc1cc(NS(=O)(=O)c2ccc(NC(=O)COc3ccccc3C(C)C)cc2)no1`, the growth inhibition was inactive: 2.63%.

As for `CCCOc1ccc2c3c(c(=O)oc2c1OCCC)CCC3`, the growth inhibition is inactive: 3.86%.

Regarding `O=C(CSc1nc(O)c(C2CCCCC2)c(=O)[nH]1)Nc1ccc(Cl)cc1`, the growth inhibition was inactive: 2.12%.

With `CC(OC(=O)c1ccccc1NCc1ccco1)C(=O)Nc1ncc(Cl)cc1Cl` (stereo not drawn), the growth inhibition was inactive: 11.2%.

`Cn1c(=O)c2c(nc(N3CCCCCC3)n2Cc2cccc3ccccc23)n(C)c1=O`: the growth inhibition was inactive: -1.26%.

For `Cn1c(=O)c2c(SCc3cccnc3)nc(CC(C)(C)C)nc2n(C)c1=O`, the growth inhibition was inactive: 1.92%.

For the compound `FC(F)(F)c1cccc(N2CCN(c3nnnn3-c3ccccc3)CC2)c1`, the growth inhibition was inactive: -6.58%.

On to `Cc1cccc(C(C)(C)C)c1OCCn1ccnc1`, for which the growth inhibition is inactive: 18.9%.

Turning to `O=C(Nc1ccc(CN2CCOCC2)cc1)c1ccc(-c2ccc(Br)cc2)o1`, the growth inhibition is inactive: 1.12%.

As to `Cc1cc(C)c(C#N)c(SCS(=O)c2ccc(C(C)(C)C)cc2)n1` (stereo not drawn), the growth inhibition is inactive: 5.36%.

Consider `COc1ccccc1-c1cc(C(=O)NCc2ccc(F)cc2)no1`, for which the growth inhibition is inactive: -0.01%.

Regarding `COc1ccc(NC(=O)c2cc(-c3cc(C)cc(C)c3O)n[nH]2)cc1Cl`, the growth inhibition was inactive: -4.57%.

For the compound `CCN(c1ccccc1)S(=O)(=O)c1ccc(NCC2COc3ccccc3O2)nc1` (stereo not drawn), the growth inhibition was inactive: -13.3%.

`CCCCc1c(C)nn(-c2nnc3c4ccccc4n(CC)c3n2)c1C`: the growth inhibition was inactive: -6.59%.

As to `O=S(=O)(Nc1ccc(S(=O)(=O)N2CCCCC2)cc1)c1ccc(Br)s1`, the growth inhibition was inactive: -0.13%.

For the compound `Cc1cccc(NC(=O)c2cc3n(n2)C(C(F)(F)F)CC(c2ccc4c(c2)OCO4)N3)c1` (stereo not drawn), the growth inhibition is inactive: -11.5%.

For the compound `Brc1ccccc1Cn1c(-c2cncs2)nc2ccccc21`, the growth inhibition was inactive: 6.72%.

`CCn1c(=O)c(C(=O)Nn2c(C)nc3ccccc3c2=O)c(O)c2ccccc21`: the growth inhibition was inactive: 2.63%.

As for `COc1ccc(-c2nnc(SCc3cc(C)cc(C)c3)o2)cc1`, the growth inhibition is inactive: -1.05%.

For the compound `O=C(CN(C(=O)CNC(=O)c1ccco1)c1ccc(Cl)c(Cl)c1)NC1CCCCC1`, the growth inhibition was inactive: 5.13%.

`CCOC(=O)c1ccc(N2C(=O)c3n[nH]c(C)c3C2c2ccc(OC)cc2OC)cc1` (stereo not drawn): the growth inhibition was inactive: 3.29%.

On to `O=C(CNCCC1=CCCCC1)Nc1ccccc1N1CCCCC1`, for which the growth inhibition is inactive: 9.23%.

In the case of `O=C1c2[nH]nc(-c3ccccc3O)c2C(c2ccccc2)N1Cc1ccco1` (stereo not drawn), the growth inhibition was inactive: 5.54%.

As for `N#CC1=C(N)SC(N)=C(C#N)C1CCC1CCCCC1`, the growth inhibition is inactive: 8.16%.

For the compound `C(=C\c1ccccc1)/CN1CCN(c2ncnc3c2oc2ccccc23)CC1`, the growth inhibition was inactive: -1.65%.

With `O=S(=O)(Nc1cc(Cl)ccc1N1CCCCC1)c1cccs1`, the growth inhibition was inactive: 5.8%.

For the compound `Cc1noc(NS(=O)(=O)c2ccc(NC(=O)COc3ccc(Cl)cc3Cl)cc2)c1C`, the growth inhibition was inactive: 4.82%.

On to `N#Cc1c(NC(=O)c2ccc(Br)o2)n(-c2ccccc2)c2nc3ccccc3nc12`, for which the growth inhibition was inactive: -13.4%.

With `CCOc1ccc2[nH]c3c(N4CCN(c5ccccn5)CC4)ncnc3c2c1`, the growth inhibition was inactive: -8.17%.

For the compound `Cn1c(C(=O)N2CCc3ccccc3C2)cc2oc3ccccc3c21`, the growth inhibition is inactive: -8.41%.
